Results taken from publication PMC6823393.
No constants are given. Whether binding was seen depends on the method and setting. Some entries that bind do so weakly or less than the wild type. For some assays here: Sequences can lack the tags named with a protein. Values belong to the molecule of their own block, whether it stands above or below them.

Sequences of proteins named here, by UniProt entry; tags and fusion partners are left off.
UniProt P0A9A6: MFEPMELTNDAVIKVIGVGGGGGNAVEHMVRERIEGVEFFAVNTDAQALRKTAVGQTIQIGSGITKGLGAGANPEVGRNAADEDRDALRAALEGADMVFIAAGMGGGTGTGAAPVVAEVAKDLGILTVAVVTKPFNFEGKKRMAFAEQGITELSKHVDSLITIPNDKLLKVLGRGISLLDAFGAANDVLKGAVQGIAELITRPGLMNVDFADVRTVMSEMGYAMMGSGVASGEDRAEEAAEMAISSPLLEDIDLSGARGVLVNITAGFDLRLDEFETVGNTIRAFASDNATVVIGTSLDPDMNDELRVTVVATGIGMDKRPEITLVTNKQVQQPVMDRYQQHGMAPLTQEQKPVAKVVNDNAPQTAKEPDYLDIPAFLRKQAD

Legend:
[1] = target: T1, FtsA (cell-free expressed) (E. coli) (UniProt P0ABH0); test: membrane recruitment on a supported lipid bilayer by confocal fluorescence microscopy; 3 µM purified FtsZ-A647 mixed with FtsA pre-expressed in PUREfrex2.0, 2 mM GTP, 2.5 mM ATP, on a DOPC/DOPG supported lipid bilayer; 37 °C; only the binder purified
T1 sequence: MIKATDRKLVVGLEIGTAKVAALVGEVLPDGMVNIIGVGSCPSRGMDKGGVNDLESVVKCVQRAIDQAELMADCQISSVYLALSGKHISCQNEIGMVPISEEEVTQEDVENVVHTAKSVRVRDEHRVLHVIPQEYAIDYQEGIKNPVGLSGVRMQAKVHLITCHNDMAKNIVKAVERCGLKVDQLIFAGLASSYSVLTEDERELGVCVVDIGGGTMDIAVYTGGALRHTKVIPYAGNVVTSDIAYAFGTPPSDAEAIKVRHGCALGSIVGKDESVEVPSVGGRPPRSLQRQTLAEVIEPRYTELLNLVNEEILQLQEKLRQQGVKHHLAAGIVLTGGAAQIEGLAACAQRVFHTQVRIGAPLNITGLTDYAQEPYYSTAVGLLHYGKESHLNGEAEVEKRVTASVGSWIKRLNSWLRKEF

[2] = target: MinE (cell-free expressed) (E. coli) (UniProt P0A734); test: membrane recruitment in liposomes by confocal fluorescence microscopy; minD or minE gene expressed alone in PUREfrex2.0 inside liposomes with 1 µM purified eGFP-MinC, 2.5 mM ATP and DnaK mix; 37 °C; eGFP-MinC signal at the membrane or in the lumen; only the binder purified

- binding [1]: binds
Molecule: FtsZ-Alexa647 (from UniProt P0A9A6 1-383)

- binding [2]: no binding (tested: 1 µM)
B1: eGFP-MinC (protein, UniProt P18196 1-231)
chain: MSNTPIELKGSSFTLSVVHLHEAEPKVIHQALEDKIAQAPAFLKHAPVVLNVSALEDPVNWSAMHKAVSATGLRVIGVSGCKDAQLKAEIEKMGLPILTEGKEKAPRPAPTPQAPAQNTTPVTKTRLIDTPVRSGQRIYAPQCDLIVTSHVSAGAELIADGNIHVYGMMRGRALAGASGDRETQIFCTNLMAELVSIAGEYWLSDQIPAEFYGKAARLQLVENALTVQPLN
